The text below walks through data of the supplement of paper PMC9744312.

Structures can show the parent of a compound that is named as a salt. The list shows a part of the results. The data scatter; read single values as rough.

This test concerns Peyronie's disease tunica albuginea primary fibroblasts. Put plainly: cell viability (DRAQ5 nuclear stain) relative to TGF-beta1-only control; higher = more viable cells. The conditions noted are these: 10 µM; TGF-beta1 10 ng/mL; 72 h.
As usually defined, the cell viability is a read-out of living cells in per cent, often relative to untreated cells. For the compound `CC(C(=O)O)c1ccc(-c2ccccc2)c(F)c1` (stereo not drawn) [Flurbiprofen], the cell viability came out at 101%.

With `NC(=O)c1cn(Cc2c(F)cccc2F)nn1` [Rufinamide], the cell viability was 104%.

For the compound `O=C(OCC(O)CO)c1ccccc1Nc1ccnc2cc(Cl)ccc12` (stereo not drawn) [Glafenine HCl], the cell viability worked out at 87.3%.

Consider `CC(=O)C1C(=O)C=C(C)OC1=O` (stereo not drawn) [Dehydroacetic acid], for which the cell viability came out at 95.4%.

Take `Nc1nc2[nH]cnc2c(=S)[nH]1` [Thioguanine]: the cell viability came out at 91.1%. Then `Cc1ccccc1C(=O)Nc1ccc(C(=O)N2CCCC(O)c3cc(Cl)ccc32)c(C)c1` (stereo not drawn) [Tolvaptan], with 98.8%; and `CC(C)c1cc2c(cc1S(=O)(=O)O)[C@@]1(C)CCC[C@@](C)(C(=O)O)[C@@H]1CC2` [Ecabet sodium], with 92.8%. Turning to `CO/N=C(\C(=O)N[C@@H]1C(=O)N2C(C(=O)O)=C(CSc3nnnn3C)CS[C@H]12)c1csc(N)n1` [Cefmenoxime hydrochloride], the cell viability was found to be 98.3%. Regarding `CC(C(=O)O)c1ccc2c(c1)[nH]c1ccc(Cl)cc12` (stereo not drawn) [Carprofen], the cell viability was 99.7%.

Consider `CC(C)(CO)c1cc2cc(NC(=O)C3(c4ccc5c(c4)OC(F)(F)O5)CC3)c(F)cc2n1C[C@@H](O)CO` [Tezacaftor(VX-661)], for which the cell viability was 89.4%. The figure for `CC[C@@H]1C(=O)OC[C@@H]1Cc1cncn1C` [Pilocarpine HCl] is 79.7%. Regarding `O=c1c(-n2ccnn2)c[nH]n1-c1cc(N2CCOCC2)ncn1` [Molidustat (BAY 85-3934)], the cell viability was found to be 81.3%. Then `COc1cc2nccc(Oc3ccc(NC(=O)NC4CC4)c(Cl)c3)c2cc1C(N)=O` [Lenvatinib (E7080)], with 62.5%; and `COc1cc2nccc(Oc3ccc(NC(=O)NC4CC4)c(Cl)c3)c2cc1C(N)=O` [lenvatinib Mesylate], with 90.6%. The figure for `C[C@@H](O[C@H]1OCCN(Cc2nn(P(=O)(O)O)c(=O)[nH]2)[C@H]1c1ccc(F)cc1)c1cc(C(F)(F)F)cc(C(F)(F)F)c1` [Fosaprepitant dimeglumine salt] is 90.7%. Take `CCC(C)(Oc1ccc(C2(c3ccc(OC(C)(CC)C(=O)O)cc3)CCCCC2)cc1)C(=O)O` (stereo not drawn) [Clinofibrate]: the cell viability was determined as 89.2%.

For the compound `CC(O)Cn1cnc2c1c(=O)n(C)c(=O)n2C` (stereo not drawn) [Proxyphylline], the cell viability was 106%. Then `CC(C)NC[C@@H](O)COc1ccc(CC(N)=O)cc1` [(R)-(+)-Atenolol HCl], with 113%. The figure for `CO/N=C(\C(=O)N[C@@H]1C(=O)N2C(C(=O)[O-])=C(C[n+]3cccc4c3CCC4)CS[C@H]12)c1csc(N)n1` [Cefpirome sulfate] is 94.4%; for `CS(=O)(=O)OCCCCOS(C)(=O)=O` [Busulfan] it is 93.4%; for `Cc1c(NC(=O)c2cccnc2)c(=O)n(-c2ccccc2)n1C` [Nifenazone] it is 94.3%. Then `CC(=C(CCOC(=O)C(C)C)SSC(CCOC(=O)C(C)C)=C(C)N(C=O)Cc1cnc(C)nc1N)N(C=O)Cc1cnc(C)nc1N` (stereo in doubt) [Sulbutiamine], with 92.7%. With `CNC(=O)c1cc(Oc2ccc(NC(=O)Nc3ccc(Cl)c(C(F)(F)F)c3)cc2)ccn1` [Sorafenib Tosylate], the cell viability came to 100%.

For `CNC(=O)c1cc(Oc2ccc(NC(=O)Nc3ccc(Cl)c(C(F)(F)F)c3)cc2)ccn1` [Sorafenib], the cell viability is 60.1%. The figure for `COc1cccc2c1C(=O)c1c(O)c3c(c(O)c1C2=O)C[C@@](O)(C(C)=O)C[C@@H]3O[C@H]1C[C@H](N)[C@H](O)[C@H](C)O1` [Daunorubicin HCl] is 31.9%; for `C=CC1=C(C(=O)O)N2C(=O)[C@@H](NC(=O)/C(=N\O)c3csc(N)n3)[C@H]2SC1` [Cefdinir] it is 98%; for `CN1C(CCl)Nc2cc(Cl)c(S(N)(=O)=O)cc2S1(=O)=O` (stereo not drawn) [Methyclothiazide] it is 90.4%. `Cc1cn([C@H]2C=C[C@@H](CO)O2)c(=O)[nH]c1=O` [Stavudine (d4T)]: the cell viability came out at 97.3%. With `CC[C@H](C)[C@@H]1NC(=O)[C@H](Cc2ccc(O)cc2)NC(=O)[C@@H](N)CSSC[C@@H](C(=O)N2CCC[C@H]2C(=O)N[C@@H](CC(C)C)C(=O)NCC(N)=O)NC(=O)[C@H](CC(N)=O)NC(=O)[C@H](CCC(N)=O)NC1=O` [Oxytocin (Syntocinon)], the cell viability worked out at 91.2%.

As to `CC(=O)NS(=O)(=O)c1ccc(N)cc1` [Sulfacetamide], the cell viability was determined as 106%. On to `CC(=O)NS(=O)(=O)c1ccc(N)cc1` [Sulfacetamide Sodium], for which the cell viability amounted to 96%.

For the compound `CC(=O)NS(=O)(=O)c1ccc(N)cc1` [Sulfacetamide sodium salt hydrate], the cell viability came out at 97.8%.

For the compound `CCN(CC)CC(=O)Nc1c(C)cccc1C` [Lidocaine], the cell viability was 87.4%. Regarding `CCN(CC)CC(=O)Nc1c(C)cccc1C` [Lidocaine hydrochloride], the cell viability worked out at 88.4%. The figure for `CCC(=O)O[C@@H]1CC(=O)O[C@H](C)C/C=C/C=C/[C@H](O)[C@H](C)C[C@H](CC=O)[C@H](O[C@@H]2O[C@H](C)[C@@H](O[C@H]3C[C@@](C)(O)[C@@H](OC(=O)CC)[C@H](C)O3)[C@H](N(C)C)[C@H]2O)[C@H]1OC` [Midecamycin] is 113%. On to `CC(=O)c1cc2c(o1)C(=O)c1ccccc1C2=O` [Napabucasin], for which the cell viability was found to be 18.6%. With `CC(=O)OCC(=O)[C@@]12OC(C)(C)O[C@@H]1C[C@H]1[C@@H]3C[C@H](F)C4=CC(=O)C=C[C@]4(C)[C@@]3(F)[C@@H](O)C[C@@]12C` [Fluocinonide], the cell viability was found to be 76%.

For `c1ccc2c(CC3=NCCN3)cccc2c1` [Naphazoline HCl], the cell viability was determined as 92.1%. For `O=c1oc2c(O)c(O)cc3c(=O)oc4c(O)c(O)cc1c4c23` [Ellagic acid], the cell viability is 95.2%. As to `O=C1NS(=O)(=O)c2ccccc21` [Saccharin], the cell viability was 92.6%. The figure for `CC(C)COc1ccc(CNC(=O)N(Cc2ccc(F)cc2)C2CCN(C)CC2)cc1` [Pimavanserin] is 59.5%; for `OCCN(CCO)c1nc(N2CCCCC2)c2nc(N(CCO)CCO)nc(N3CCCCC3)c2n1` [Dipyridamole] it is 85.7%.

With `CC[C@H](CO)Nc1nc(NCc2ccccc2)c2ncn(C(C)C)c2n1` [Roscovitine (Seliciclib,CYC202)], the cell viability came to 64.9%. Consider `C[N+](C)(C)CC(=O)O` [Betaine], for which the cell viability turned out to be 95%. Take `C[C@]12CC[C@@H]3c4ccc(OC(=O)c5ccccc5)cc4CC[C@H]3[C@@H]1CC[C@@H]2O` [Estradiol Benzoate]: the cell viability amounted to 26.9%. Then `Cc1ccc(F)c(NC(=O)Nc2ccc(-c3cccc4[nH]nc(N)c34)cc2)c1` [Linifanib (ABT-869)], with 88.8%; and `CN1CCN(C(c2ccccc2)c2ccccc2)CC1` [Cyclizine 2HCl], with 92%; and `COC(=O)[C@@H]1CC2=CC(=O)CC[C@]2(C)[C@@]23O[C@@H]2C[C@@]2(C)[C@@H](CC[C@@]24CCC(=O)O4)[C@H]13` [Eplerenone], with 97%. In the case of `Cc1c(-c2cnccn2)ssc1=S` [Oltipraz], the cell viability amounted to 87.7%. The figure for `CCN(CC)CCNC(C(=O)OCCC(C)C)c1ccccc1` (stereo not drawn) [Camylofin Chlorhydrate] is 59%. The figure for `C[C@@H]1C[C@H]2[C@@H]3CCC4=CC(=O)C=C[C@]4(C)[C@@]3(F)[C@@H](O)C[C@]2(C)[C@@]1(O)C(=O)COP(=O)(O)O` [Dexamethasone Sodium Phosphate] is 82.7%; for `CC(C)OC(=O)OCOP(=O)(CO[C@H](C)Cn1cnc2c(N)ncnc21)OCOC(=O)OC(C)C` [Tenofovir Disoproxil Fumarate] it is 85.3%; for `CC(C)(CO)C(O)C(=O)NCCC(=O)O` [Calcium D-Panthotenate] it is 52.6%. Then `N[C@@H](Cc1cc(I)c(Oc2ccc(O)c(I)c2)c(I)c1)C(=O)O` [Liothyronine Sodium], with 82.8%; and `Nc1c2ccccc2nc2ccccc12` [9-Aminoacridine], with 49.2%. With `Cc1ccc(=O)n(-c2ccccc2)c1` [Pirfenidone], the cell viability was found to be 90.2%. Then `C[C@@H](O)[C@@H]1NC(=O)[C@H](CCCCN)NC(=O)[C@@H](Cc2c[nH]c3ccccc23)NC(=O)[C@H](Cc2ccccc2)NC(=O)[C@@H](NC(=O)[C@H](N)Cc2ccccc2)CSSC[C@@H](C(=O)N[C@H](CO)[C@@H](C)O)NC1=O` [Octreotide Acetate], with 100%; and `C[C@H](CCC(=O)O)[C@H]1CC[C@H]2[C@@H]3[C@@H](O)C[C@@H]4C[C@H](O)CC[C@]4(C)[C@H]3CC[C@]12C` [Ursodiol], with 74.6%; and `CC[C@H](C)[C@H](NC(=O)[C@H](Cc1ccc(O)cc1)NC(=O)[C@@H](NC(=O)[C@H](CCCN=C(N)N)NC(=O)[C@@H](N)CC(=O)O)C(C)C)C(=O)N[C@@H](Cc1cnc[nH]1)C(=O)N1CCC[C@H]1C(=O)N[C@@H](Cc1ccccc1)C(=O)O` [Angiotensin II human Acetate], with 98.4%. As for `O=C(CCCN1CCN(c2ccccn2)CC1)c1ccc(F)cc1` [Azaperone], the cell viability was 90.4%. The figure for `COCCCN1CCC(NC(=O)c2cc(Cl)c(N)c3c2OCC3)CC1` [Prucalopride] is 100%; for `COCCCN1CCC(NC(=O)c2cc(Cl)c(N)c3c2OCC3)CC1` [Prucalopride Succinate] it is 76.1%.

`COC(=O)C1=C(C#N)NC(C)=C(C(=O)OC(C)C)C1c1cccc([N+](=O)[O-])c1` (stereo not drawn) [Nilvadipine]: the cell viability is 91%. For the compound `Cc1ccc(NC(=O)C2(c3ccc4c(c3)OC(F)(F)O4)CC2)nc1-c1cccc(C(=O)O)c1` [VX-809 (Lumacaftor)], the cell viability amounted to 35.4%.

For the compound `CNC(=O)c1ccc(Nc2ncc(C(F)(F)F)c(NCc3nccnc3N(C)S(C)(=O)=O)n2)cc1`, the cell viability came to 82.6%. Take `CC(C)OC(=O)C(C)(C)Oc1ccc(C(=O)c2ccc(Cl)cc2)cc1` [Fenofibrate]: the cell viability turned out to be 88%. Regarding `OCCOc1ccc(/C(=C(/CCCl)c2ccccc2)c2ccccc2)cc1` [Ospemifene], the cell viability is 82.8%. For the compound `NC(=O)CC[C@H](N)C(=O)O` [L-Glutamine], the cell viability is 99.1%.
